Reference: article PMC6030054
These are yes or no findings as the source states them, for the method shown. In cells and extracts the contact can be indirect. Some results given as binding are weak or reduced against the parent protein; the word gives no strength.

Protein sequences, listed by entry. Tags and fused reporters are not part of them. Residues count along the entry.
UniProt Q03142, residues 17-799: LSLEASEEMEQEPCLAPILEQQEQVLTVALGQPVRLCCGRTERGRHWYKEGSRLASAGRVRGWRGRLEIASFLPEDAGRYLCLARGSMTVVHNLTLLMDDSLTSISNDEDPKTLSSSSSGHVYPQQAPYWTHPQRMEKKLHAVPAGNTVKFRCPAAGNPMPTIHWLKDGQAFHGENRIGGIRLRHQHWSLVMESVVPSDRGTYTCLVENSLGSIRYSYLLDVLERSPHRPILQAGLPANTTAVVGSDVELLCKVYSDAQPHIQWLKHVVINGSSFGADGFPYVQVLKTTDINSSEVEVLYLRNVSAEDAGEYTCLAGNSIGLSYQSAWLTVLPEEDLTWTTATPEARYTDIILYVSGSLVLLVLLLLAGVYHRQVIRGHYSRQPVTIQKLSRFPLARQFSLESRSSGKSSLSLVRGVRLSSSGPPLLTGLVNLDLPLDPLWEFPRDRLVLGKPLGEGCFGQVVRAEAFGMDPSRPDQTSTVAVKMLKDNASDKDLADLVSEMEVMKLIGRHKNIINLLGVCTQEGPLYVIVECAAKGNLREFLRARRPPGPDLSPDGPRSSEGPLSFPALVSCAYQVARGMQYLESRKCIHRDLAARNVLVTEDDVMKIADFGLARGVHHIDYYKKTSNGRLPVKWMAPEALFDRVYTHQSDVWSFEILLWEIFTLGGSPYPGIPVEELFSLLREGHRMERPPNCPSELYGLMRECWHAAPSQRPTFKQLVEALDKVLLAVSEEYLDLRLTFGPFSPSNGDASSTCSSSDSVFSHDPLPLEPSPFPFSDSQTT

Molecular target: FGF receptor 4 (FGFR4), endogenous mouse (mouse (endogenous in primary mouse hepatocytes)) (UniProt Q03142)
Experiment: co-IP; whole cell extracts of primary mouse hepatocytes treated with FGF19 (10 or 30 min or indicated times; some with siRNA for Src or ERK); immunoprecipitation with anti-FGFR4, anti-Src, anti-Shp2 or anti-FRS2; endogenous proteins detected by IB; CoIP buffer (50 mM Tris pH 8.0, 150 mM NaCl, 2 mM EDTA, 0.3% NP40, 10% glycerol)

| binding | Binder |
| --- | --- |
| no binding | Farnesoid-X-Receptor (FXR), endogenous mouse (protein, UniProt Q60641 1-488) MVMQFQGLENPIQISLHHSHRLSGFVPEGMSVKPAKGMLTEHAAGPLGQNLDLESYSPYNNVPFPQVQPQISSSSYYSNLGFYPQQPEDWYSPGIYELRRMPAETGYQGETEVSEMPVTKKPRMAAASAGRIKGDELCVVCGDRASGYHYNALTCEGCKGFFRRSITKNAVYKCKNGGNCVMDMYMRRKCQECRLRKCKEMGMLAECMYTGLLTEIQCKSKRLRKNVKQHADQTANEDDSEGRDLRQVTSTTKFCREKTELTADQQTLLDYIMDSYNKQRMPQEITNKILKEEFSAEENFLILTEMATSHVQILVEFTKKLPGFQTLDHEDQIALLKGSAVEAMFLRSAEIFNKKLPAGHADLLEERIRKSGISDEYITPMFSFYKSVGELKMTQEEYALLTAIVILSPDRQYIKDREAVEKLQEPLLDVLQKLCKMYQPENPQHFACLLGRLTELRTFNHHHAEMLMSWRVNDHKFTPLLCEIWDVQ |
| binds | FRS2, endogenous mouse (protein, UniProt Q8C180 1-508) MGSCCSCPDKDTVPDNHRNKFKVINVDDDGNELGSGVMELTDTELILYTRKRDSVKWHYLCLRRYGYDSNLFSFESGRRCQTGQGIFAFKCARAEELFNMLQEIMQNNSINVVEEPVVERSSHQTELEVPRTPRTPTTPGLGAQNLPNGYPRYPSFGDASSHPSSRHPSVGSARLPSVGEESTHPLLVAEEQVHTYVNTTGVQEERKNRASVHVPPEARVSNAESNTPKEEPSNPEDRDPQVLLKPEGVRFVLGPTPVQKQLMEKEKLEQLGKDPVSGSGAGNTEWDTGYDSDERRDVPPVNKLVYENINGLSIPSASGVRRGRLTSTSTSDTQNINNSAQRRPALLNYENLPSLPPVWEARKLSRDEDDNLGPKTPSLNGYHNNLDPMHNYVNTENVTVPASAHKIDYSKRRDCTPTVFNFDIRRPSLEHRQLNYIQVDLEGGSDSDNPQTPKTPTTPLPQTPTRRTELYAVIDIERTAAMSNLQKALPRDDGTSRKTRHNSTDLPM |
